# The supplement of paper PMC12067093, “Discovery and optimisation of a covalent ligand for TRIM25 and its application to targeted protein ubiquitination” (Chemical Science, 2025)
# The other results are listed elsewhere or left out.
# Compound: Cc1cc(ccc1-c1ccccc1)C(=O)N1CCCN(CC1)C(=O)CCl [compound 10]
# Experiment: probe-labelled cysteine peptide fold change vs DMSO (competition) (log2 fold change); higher = less target engagement (more negative = stronger competition)
# Settings: 10 µM; THP-1; incubation time: 4 h
# 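Further: competitive profiling in live THP-1 cells: cysteine peptides tagged with an iodoacetamide desthiobiotin (IA-DTB) probe, intensity after compound treatment relative to DMSO-treated cells.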
row,Target,probe-labelled cysteine peptide fold change
1,XPNPEP3_Q9NQH7_503_EMNDIEQICSQAS (UniProt Q9NQH7),-0.468
2,XPNPEP1_Q9NQW7_48_NSEYVTEPIQAYIIPSGDAHQSEYIAPCDCRR (UniProt Q9NQW7),-0.104
3,WDR77_Q9BQA1_53_CWAGSLWLFK (UniProt Q9BQA1),-0.0575
4,WIPI2_Q9Y4P8_334_NICSLATIQK (UniProt Q9Y4P8),-0.051
5,WDFY4_Q6ZS81_1665_FRDGLCAGSWVER (UniProt Q6ZS81),0.0168
6,WDR82_Q6UXN9_287_HTGPITCLQFNPK (UniProt Q6UXN9),-0.00419
7,WBP4_O75554_13_KFCDYCK (UniProt O75554),0.0364
8,WASHC5_Q12768_369_DCNVAIR (UniProt Q12768),-0.0902
9,XIAP_P98170_227_HFPNCFFVLGR (UniProt P98170),0.136
10,XPO1_O14980_1070_QMSVPGIFNPHEIPEEMCD (UniProt O14980),-0.221
11,WSB1_Q9Y6I7_66_LVPWSQCLQNFLLHGTK (UniProt Q9Y6I7),-0.2
12,WNK1_Q9H4A3_1135_VVECQLETHNRK (UniProt Q9H4A3),0.208
13,WDR6_Q9NNW5_830_LACHVMHLSSHR (UniProt Q9NNW5),0.144
14,WDR1_O75083_438_CFSIDNPGYEPEVVAVHPGGDTVAIGGVDGNVR (UniProt O75083),-0.0308
15,WDR44_Q5JSH3_701_LITAANFCQNGK (UniProt Q5JSH3),-0.0485
16,XPNPEP1_Q9NQW7_309_CCMPYTPICIAK (UniProt Q9NQW7),0.00998
17,WDR74_Q6RFH5_201_LVTCTGYHQVR (UniProt Q6RFH5),0.00749
18,XAB2_Q9HCS7_587_DLFEQALDGCPPK (UniProt Q9HCS7),0.161
19,WDR6_Q9NNW5_254_VQNIGHCFGHSAR (UniProt Q9NNW5),0.0488
20,WDR26_Q9H7D7_153_LIGQHLNGLGLNQTVDLLMQESGCR (UniProt Q9H7D7),-0.156

row,Target,probe-labelled cysteine peptide fold change
1,WHAMM_Q8TF30_435_EKQDEVVYYDPCENPEELK (UniProt Q8TF30),-0.569
2,WT1_P19544_385_HTGVKPFQCK (UniProt P19544),0.139
3,WDR1_O75083_225_VCALGGSK (UniProt O75083),-0.113
4,WDHD1_O75717_598_GTGFDGDQCLGVQLLELGK (UniProt O75717),-0.0321
5,WTAP_Q15007_90_EQEMQECTTQIQYLK (UniProt Q15007),0.0871
6,WDR6_Q9NNW5_1096_LGHGEPTFMNSTVFHVPDVADMDCWPVSPEFGHR (UniProt Q9NNW5),0.172
7,WDR74_Q6RFH5_83_HCPGGEGMFR (UniProt Q6RFH5),-0.0242
8,WDFY4_Q6ZS81_2226_TEDFVSCIENYR (UniProt Q6ZS81),-0.17
9,WDR62_O43379_826_CLLTNGK (UniProt O43379),-0.317
10,WDR81_Q562E7_130_LSYPLGGGLPFEDGSCGPETLTR (UniProt Q562E7),-0.0271
11,WDR6_Q9NNW5_577_QGVTSVTCHGGYVYTTGR (UniProt Q9NNW5),-0.105
12,WBP4_O75554_18_CWIADNRPSVEFHER (UniProt O75554),-9.28e-05
13,WDR81_Q562E7_76_RLPLGPCPR (UniProt Q562E7),-0.00872
14,WDR70_Q9NW82_338_KVIPTTCTYSR (UniProt Q9NW82),0.603
15,XPNPEP1_Q9NQW7_46_NSEYVTEPIQAYIIPSGDAHQSEYIAPCDCRR (UniProt Q9NQW7),0.194
16,WDR7_Q9Y4E6_469_VTCLLYPHQVSAR (UniProt Q9Y4E6),0.00834
17,WDR26_Q9H7D7_493_VQCLWCLSDGK (UniProt Q9H7D7),0.104
18,XAB2_Q9HCS7_66_LLPCSYK (UniProt Q9HCS7),-0.68
19,WDR1_O75083_170_LATGSDDNCAAFFEGPPFK (UniProt O75083),0.0581

# A different layout for some results above.
row	Target	probe-labelled cysteine peptide fold change
5	WTAP_Q15007_90_EQEMQECTTQIQYLK (UniProt Q15007)	0.0871
6	WDR6_Q9NNW5_1096_LGHGEPTFMNSTVFHVPDVADMDCWPVSPEFGHR (UniProt Q9NNW5)	0.172
7	WDR74_Q6RFH5_83_HCPGGEGMFR (UniProt Q6RFH5)	-0.0242
8	WDFY4_Q6ZS81_2226_TEDFVSCIENYR (UniProt Q6ZS81)	-0.17
9	WDR62_O43379_826_CLLTNGK (UniProt O43379)	-0.317
10	WDR81_Q562E7_130_LSYPLGGGLPFEDGSCGPETLTR (UniProt Q562E7)	-0.0271
11	WDR6_Q9NNW5_577_QGVTSVTCHGGYVYTTGR (UniProt Q9NNW5)	-0.105
12	WBP4_O75554_18_CWIADNRPSVEFHER (UniProt O75554)	-9.28e-05
13	WDR81_Q562E7_76_RLPLGPCPR (UniProt Q562E7)	-0.00872
14	WDR70_Q9NW82_338_KVIPTTCTYSR (UniProt Q9NW82)	0.603
15	XPNPEP1_Q9NQW7_46_NSEYVTEPIQAYIIPSGDAHQSEYIAPCDCRR (UniProt Q9NQW7)	0.194
